Measured values published in PubChem BioAssay AID743255 (National Center for Advancing Translational Sciences (NCATS), 2014).
Screen size: about 390,000 compounds; about 910 (0.23%) were called active. Inconclusive means that the source gave no clear call. Such entries were picked first, then a sample of the others. The call rests on the fitted dose curve; in most records, active means well fitted inhibition curve with a large enough effect; inconclusive means small, poorly fitted or top-dose-only effect; inactive means no such curve, though single readings can be large or run the other way. Potencies of inconclusive entries are doubtful fits and often do not repeat.

Sequences of proteins named here, by UniProt entry; tags and fusion partners are left off. A change or cut given only in a name is not applied to a line headed by its entry.
UniProt O94782: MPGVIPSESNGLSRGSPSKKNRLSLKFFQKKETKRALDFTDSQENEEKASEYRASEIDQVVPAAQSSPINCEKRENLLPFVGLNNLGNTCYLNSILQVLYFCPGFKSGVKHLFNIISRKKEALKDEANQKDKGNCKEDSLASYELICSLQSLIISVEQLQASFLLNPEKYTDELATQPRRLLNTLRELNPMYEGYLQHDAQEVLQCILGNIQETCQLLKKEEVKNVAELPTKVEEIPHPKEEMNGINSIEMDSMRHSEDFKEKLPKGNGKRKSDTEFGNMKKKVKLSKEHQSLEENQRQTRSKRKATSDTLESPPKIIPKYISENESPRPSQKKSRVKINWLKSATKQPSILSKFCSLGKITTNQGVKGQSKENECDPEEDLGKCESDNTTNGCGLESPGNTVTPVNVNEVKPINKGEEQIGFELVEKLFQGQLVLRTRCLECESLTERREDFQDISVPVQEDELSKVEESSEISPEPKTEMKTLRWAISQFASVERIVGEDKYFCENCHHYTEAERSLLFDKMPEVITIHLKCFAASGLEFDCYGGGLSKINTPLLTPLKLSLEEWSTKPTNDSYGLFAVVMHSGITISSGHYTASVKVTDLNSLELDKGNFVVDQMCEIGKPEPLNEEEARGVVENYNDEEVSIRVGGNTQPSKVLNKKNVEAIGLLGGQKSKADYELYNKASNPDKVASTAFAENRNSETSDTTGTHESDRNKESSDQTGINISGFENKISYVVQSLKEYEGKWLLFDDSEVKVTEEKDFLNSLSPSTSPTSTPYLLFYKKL

Target: Ubiquitin carboxyl-terminal hydrolase 1 (Homo sapiens) (UniProt O94782)
Experiment: Inhibitors of USP1/UAF1: Primary Screen; further: nearly all actives have a fitted effect of over 60% in size
Conditions: recombinant USP1/UAF1, Ub-Rhodamine cleavage fluorescence; activity change, negative = inhibition: at 57.1 µM (top of the series)
In short: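 1 nM enzyme complex + cpd, 15 min RT; start with Ub-Rho 150nM final; kinetic fluorescence ex 480/em 540, 6 reads q60 s. Buffer 50mM HEPES pH 7.8, 0.5mM EDTA, 0.1 mg/ml BSA, 1mM TCEP, 0.01% Tween-20.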
On the % scale 0 is the no-effect control and ±100 the full control effect; potency means the concentration at half of the fitted maximal effect.

Structure (SMILES) | Potency | activity change, negative = inhibition
Nc1nc(Nc2cccc(Cl)c2)nc(NCc2ccco2)c1[N+](=O)[O-] | inconclusive: 14.1 µM [inhibitor, partial curve] | –
CC1(C)CC(=O)C=C(c2cccc(OC(=O)c3ccc(-c4ccccc4)cc3)c2)C1=O | – | inactive: -15.9%
O=C(CCN1C(=O)/C(=C/c2cccs2)SC1=S)N1CCCCC1 | inconclusive: 31.6 µM [inhibitor, partial curve, poor fit] | –
COc1ccc(OC)c(/C=C2\Oc3cc(OCC(=O)N4CCC[C@H]4C(=O)O)ccc3C2=O)c1 | – | inactive: -21.9%
COc1ccc(S(=O)(=O)Nc2nnc(C(C)(C)C)s2)cc1 | – | inactive: 0.265%
COc1ccc(CCNC(=O)c2cc3c(-c4ccccc4F)nn(C)c3s2)c(OC)c1 | inconclusive: 3.98 µM [inhibitor, full curve] | –
CCOC(=O)c1c(OCC)[nH]c2c1cc(O)c1ccccc12 | inconclusive: 31.6 µM [inhibitor, partial curve] | –
CCOc1ccccc1NC(=O)c1cc2c(Cl)nc3ccccc3c2s1 | inconclusive: 8.91 µM [inhibitor, full curve, poor fit] | –
CCCCCc1cc(=O)oc2c(C(CCN3CCCCC3)c3cc(OC)c(OC)c(OC)c3)c(OC)cc(OC)c12 (centres undefined) | – | inactive: -25.2%
CCc1nn(CCCC(=O)Nc2ccc(C)cc2C)c(=O)c2cc3occc3n12 | inconclusive: 0.251 µM [inhibitor, full curve, poor fit] | –
O=C(CCC1N=C2c3ccccc3N=C(SCc3ccccc3F)N2C1=O)NC1CCCCC1 (centres undefined) | inconclusive: 20 µM [inhibitor, partial curve, poor fit] | –
Cc1ccccc1-c1nc2ccccc2o1 | inconclusive: 5.01 µM [inhibitor, partial curve] | –
O=C(Nc1ccc(F)cc1)Nc1nnc(Cc2ccccc2)s1 | – | inactive: -13.8%
O=C(CCCCCCCC(=O)N1CCCC1)N1CCCC1 | inconclusive: 31.6 µM [inhibitor, single point] | –
COc1ccc(NCc2cc3cc4c(cc3n(CC(=O)Nc3ccc(F)cc3F)c2=O)OCO4)cc1 | inconclusive: 25.1 µM [inhibitor, single point] | –
Cc1[nH]c2ccccc2c1C(=O)C(=O)Nc1ccc2c(c1)OCCO2 | – | inactive: -23.5%
CC(C)C[C@@H](CO)N1CCN(CCCc2ccccc2)CCC1=O | inconclusive: 7.08 µM [inhibitor, partial curve, poor fit] | –
COc1ccc(N(Cc2cccs2)C(=O)COc2cccc(Cl)c2)cc1 | – | inactive: -11.6%
CCOC(=O)N1CCC(Nc2c(NCCCN(CC)CC)c(=O)c2=O)CC1 | inconclusive: 2 µM [inhibitor, partial curve, poor fit] | –
OCCN1CCN(CCO)C1=S | inconclusive: 50.1 µM [inhibitor, single point] | –
CCOC(=O)C1CCCN(S(=O)(=O)c2ccc(N3CCCCS3(=O)=O)cc2)C1 (centres undefined) | – | inactive: 7.02%
COCCCNC(=O)C[C@H]1C[C@H](C(=O)N2CCOCC2)[C@@]2(C)c3[nH]c4ccc(Cl)cc4c3CCN2C1=O | inconclusive: 0.316 µM [inhibitor, full curve] | –

3 compounds already listed, sorted by formula weight, smallest number first.
Structure (SMILES) | Potency | activity change, negative = inhibition
CCOC(=O)c1c(OCC)[nH]c2c1cc(O)c1ccccc12 | inconclusive: 31.6 µM [inhibitor, partial curve] | –
O=C(Nc1ccc(F)cc1)Nc1nnc(Cc2ccccc2)s1 | – | inactive: -13.8%
COc1ccc(NCc2cc3cc4c(cc3n(CC(=O)Nc3ccc(F)cc3F)c2=O)OCO4)cc1 | inconclusive: 25.1 µM [inhibitor, single point] | –

Continuation:

Structure (SMILES) | Potency | activity change, negative = inhibition
COc1cc(OC)nc(-n2ncc(Br)c(Br)c2=O)n1 | – | inactive: -24%
CC1CN(c2ccc([N+](=O)[O-])c(NCCOc3ccc(Cl)cc3)c2)CC(C)N1 (centres undefined) | – | inactive: -23.1%
CC(c1ccccc1)N1C(=O)C2C3C=CC(C4CC34)C2C1=O (centres undefined) | inconclusive: 2 µM [inhibitor, partial curve] | –
Cn1[nH]c(-c2ccccc2)c(/C=N/O)c1=O | inconclusive: 44.7 µM [inhibitor, partial curve, poor fit] | –
COc1cc(NC(=O)COc2ccc(Br)cc2)ccc1NC(=O)C(C)C | inconclusive: 5.62 µM [inhibitor, full curve, poor fit] | –
c1ccc2c(Nc3nc4c(s3)CCCC4)cccc2c1 | – | inactive: -13.3%
O=C(N/N=C/c1ccc(OC(=O)c2ccccc2Cl)cc1)c1ccccn1 | – | inactive: -16.3%
O=C(Nc1ccccc1Cl)c1ccccc1Oc1ccc(C(F)(F)F)cc1[N+](=O)[O-] | inconclusive: 44.7 µM [inhibitor, partial curve, poor fit] | –
O=C(NNC(=O)c1cc2cc(Br)ccc2oc1=O)c1ccc(O)cc1O | inconclusive: 35.5 µM [inhibitor, partial curve] | –
CCCC(C)c1oc(=O)cc(O)c1C (centres undefined) | inconclusive: 0.631 µM [inhibitor, full curve, poor fit] | –
CCc1ccc(/C=C/C(=O)C2C(=O)c3ccccc3C2=O)cc1 | inconclusive: 35.5 µM [inhibitor, partial curve, poor fit] | –
COc1ccccc1CNC(=O)C1CCN(S(=O)(=O)c2c(C)noc2/C=C/c2c(C)cc(C)cc2C)CC1 | inconclusive: 5.62 µM [inhibitor, full curve, poor fit] | –
Cn1cccc1CC(=O)N/N=C\c1c2ccccc2cc2ccccc12 | inconclusive: 2.82 µM [inhibitor, full curve] | –
N#CC(C(=O)Nc1cccc(Cl)c1)=C1Nc2ccccc2N1 | – | inactive: -19.6%
CCOc1cccc(/C=N/N2C(=O)CSC2=S)c1O | inconclusive: 28.2 µM [inhibitor, partial curve] | –
CC(=O)c1sc2nc(C)c3c(c2c1N)CCCC3 | inconclusive: 5.62 µM [inhibitor, partial curve] | –
COc1ccccc1C(=O)Nc1ccc(NC(=O)c2ccco2)cn1 | inconclusive: 0.631 µM [inhibitor, full curve, poor fit] | –
COCCNCCOCCOc1ccc(Cl)c(C)c1 | – | inactive: -5.87%
Oc1c(C(c2ccccn2)N2CCC(Cc3ccccc3)CC2)cc(Cl)c2cccnc12 (centres undefined) | inconclusive: 8.91 µM [inhibitor, full curve, poor fit] | –
Cc1[nH]n(S(=O)(=O)c2ccccc2)c(=O)c1N=Nc1cccc(Cl)c1 | – | inactive: -12.2%
C#CCNC(=O)C1=C[C@@H](c2ccc(Br)cc2)[C@H](CCCO)[C@@H](OCC)O1 | inconclusive: 100 µM [inhibitor, partial curve, poor fit] | –
Cc1ccc(Cl)cc1-n1c(=O)c2sc3ccccc3c2n(CC(=O)NC2CCCCC2)c1=O | inconclusive: 70.8 µM [inhibitor, partial curve, poor fit] | –
